{"source": "patent US20140370086A1", "about": "“SUBLINGUAL IMMUNOTHERAPY WITH REDUCED ORAL ITCHINESS” (priority 2013, published 2014)", "test": "Preliminary studies of Cromolyn solution on oral itchiness / Oral Allergy Syndrome", "assay_type": "in vivo", "settings": "Cromolyn 100-200 mg per 5 ml of sterile water or glycerine", "note": "For at least one compound, name, drawing or mass did not settle the structure."}
{"smiles": "O=C(O)c1cc(=O)c2c(OCC(O)COc3cccc4oc(C(=O)O)cc(=O)c34)cccc2o1", "note": "[Cromolyn, Cromolyn sodium (cromoglicic acid)]", "values": [{"measurement": "effect on oral itchiness associated with ingestion of raw fruits and vegetables that cross-react with pollen", "result": "prevent and/or treat oral itchiness"}]}
